# Source: PubChem BioAssay AID493014 (National Center for Advancing Translational Sciences (NCATS), 2011)
# Hit rate of the full screen: of about 340,000 compounds, about 170 (0.05%) were called active. The inconclusive results got no clear call from the source; some entries with a clear call stand among them for comparison. Calls come from the whole dose curve; as a rule, active = well fitted inhibition curve with a large enough effect in the signal ratio, with a control signal flat (not every such curve was filed as active); inconclusive = small, poorly fitted or top-dose-only effect, or effect the other way, or a change in a side signal; inactive = flat fitted curve, though single readings scatter; the % refers to the signal ratio. Where the call is inconclusive, the potency comes from a doubtful curve fit.
# Experiment: qHTS Assay to Find Inhibitors of Chronic Active B-Cell Receptor Signaling;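 for activity change, negative = inhibition: plate controls were basal doxycycline-induced cells for no effect and cells given 10 µM MG132 for full effect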
# Details: ABC-DLBCL IkBa-CBG/CBR reporter, luminescence ratio (green luciferase fused to IkBa over red control in TMD8 lymphoma cells), 4 h; activity change, negative = inhibition: at 46.1 µM (top of the series)
# Procedure, shortened: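 Compounds up to 46 uM were incubated four hours with TMD8 cells whose green CBG68 luciferase is fused to IkappaBalpha; red CBR luminescence normalised the signal, and concentration-effect curves were fitted to fusion, red and ratio data.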
# Potency is the fitted concentration of half-maximal effect.
Compound,"activity change, negative = inhibition",Potency
C=CCc1cccc(/C=N/NC(=O)CCC(=O)Nc2ccc(F)cc2)c1O,inactive,–
O=C(NCC1CCCN1S(=O)(=O)c1cccs1)C(=O)Nc1ccc(F)cc1F (stereo not given),–,"inconclusive: 10.3 µM [falling, partial curve, poor fit]"
CCSc1nc2sc3c(c2c(=O)[nH]1)CCCC3,inconclusive: 5.61%,–
O=C(Nc1ccc(Cl)cc1)Nc1nnc(-c2ccncc2)s1,inactive,–
CCOc1ccc(C(Nc2ccc(C)cc2)P2(=O)OCC(C)(C)CO2)cc1 (stereo not given),–,"inconclusive: 5.01 µM [falling, partial curve, poor fit]"
COc1ccc(OCc2nc(N)nc(Nc3ccc(C)cc3)n2)cc1,inactive,–
CC1CCN(c2ccc3nnc(CCC(=O)NC(C)C)n3n2)CC1,inactive,–
Cc1cc(NC(=O)CSc2ncnc3c2cnn3-c2cccc(Cl)c2)no1,inactive,–
COC(=O)/C(=C\Nc1cccc(Cl)c1C)c1ncc(C(F)(F)F)cc1Cl,inconclusive: 14.8%,–
CCn1c(SCC(=O)Nc2cccc(NC(=O)c3cccs3)c2)nnc1-c1ccncc1,–,"inconclusive: 17.8 µM [falling, partial curve, poor fit]"
COC(=O)c1cc(NC(=O)c2ccc([N+](=O)[O-])cc2)c(=O)oc1C,inconclusive: 2.32%,–
O=C(NCCCN1CCC(Cc2ccccc2)CC1)C1CCN(S(=O)(=O)N2CCC3(CC2)OCCO3)CC1,inconclusive: 5.17%,–
Oc1c(Br)cccc1/C=N/Nc1c(F)c(F)c(F)c(F)c1F,–,"inconclusive: 1.84 µM [rising, full curve, poor fit]"
CCc1cc(=O)oc2cc(OCc3ccc(C(=O)O)o3)ccc12,–,"inconclusive: 22.4 µM [falling, single point]"
O=C(NCc1csc(-c2cccs2)n1)C1CCCCC1,inconclusive: 8.94%,–
c1ccc(CN2CCN(c3nc4ccccc4c4ccccc34)CC2)cc1,–,"inconclusive: 0.82 µM [rising, full curve, poor fit]"
CCCNc1c(NC(=O)c2cccs2)c(=O)oc2ccccc12,inconclusive: -12.3%,–
Cc1ccccc1-n1c(SCC(=O)N2CCN(c3ccccc3)CC2)nnc1-c1ccncc1,inconclusive: 4.66%,–
COc1cc(/C=C(/Sc2nnc(-c3ccc(F)cc3)o2)C(=O)O)ccc1OC(F)F,–,"inconclusive: 35.5 µM [falling, single point]"
CCOc1ccc(OCCC(=O)N(CC)CC(=O)Nc2c(F)cccc2F)cc1,inconclusive: 1.87%,–
Fc1cccc(F)c1/C=N/Nc1ccccn1,inconclusive: -13.4%,–
CN(C)c1ccc(CN2CCC(C(N)=O)CC2)cc1,inconclusive: 9.56%,–
CCOP(=O)(OCC)c1nc(/C=C/c2ccccc2)oc1NCc1ccc(OC)cc1,–,"inconclusive: 29.1 µM [falling, single point]"
Nn1c(COc2ccccc2)nnc1SCc1cc(=O)[nH]c2ccccc12,inconclusive: 1.52%,–
COCC(C)NCc1cccc(C)c1 (stereo not given),inconclusive: -3.21%,–
O=C(CCc1ccccc1)NC(=S)Nc1ccccc1[N+](=O)[O-],inactive,–
CCOC(=O)C1CCN(Cc2nc3ccccc3c(=O)n2-c2ccc(F)cc2)CC1,inconclusive: -17.9%,–

Compound,"activity change, negative = inhibition",Potency
OCC1(Cc2ccccc2)CCCN(Cc2ccc(-c3ccco3)cc2)C1 (stereo not given),inactive,–
COCCN=c1scc(-c2ccc3c(c2)NC(=O)CO3)n1/N=C(\C)c1ccc(O)cc1,inconclusive: -2.13%,–
N#Cc1c(NC(=O)Cn2cnc3ccccc3c2=O)oc(-c2ccccc2)c1-c1ccccc1,–,"inconclusive: 7.31 µM [rising, partial curve]"
COC(=O)C1=C(C)N(Cc2ccco2)C(=O)C1,inactive,–
O=C(CCc1ccccc1F)N1CCN(c2ccc(C(F)(F)F)cn2)CC1,inactive,–
O=C(Nc1ccc(N2CCN(C(=O)c3ccco3)CC2)c(Cl)c1)c1cc2ccccc2o1,inconclusive: -17%,–
COc1cc(/C=C(\C#N)c2nc3ccccc3c(=O)[nH]2)cc(OC)c1OC,–,"inconclusive: 15.8 µM [falling, partial curve]"
Cc1c(C(=O)N2CC3(CC(c4cccc(NC(=O)CC(c5ccccc5)c5ccccc5)c4)=NO3)C[C@@H]2C(N)=O)cc([N+](=O)[O-])cc1[N+](=O)[O-] (stereo not given in full),inconclusive: -1.38%,–
Cc1ccc(C(C)C)c(OCCCN2C(=O)NC(C)(C)C2=O)c1,inconclusive: -28.9%,–
O=C(Cc1ccc([N+](=O)[O-])cc1)N1CCN(c2ccc([N+](=O)[O-])cc2)CC1,inactive,–
CCc1cc(C(=O)N2CCCC(C(=O)c3ccc(Cl)cc3)C2)no1 (stereo not given),inactive,–
CNC(=O)c1cccnc1Nc1cccc(C(F)(F)F)c1,inconclusive: 2.01%,–
COc1ccc(-c2[nH]c(-c3cc(OC)c4c(c3)OCO4)nc2-c2ccccc2)cc1,inconclusive: -11.8%,–
Clc1ccc(-c2c[n+](Cc3cccc(Cl)c3)c3n2CCC3)cc1,inconclusive: -13.2%,–
COc1cccc(/C=C/C(=O)Nc2ccc(C(=O)Nc3cccc(S(N)(=O)=O)c3)cc2)c1OC,inconclusive: -1.78%,–
CC(C)CC1c2[nH]c3ccccc3c2CCN1C(=O)CCC(=O)N(C)C (stereo not given),–,"inconclusive: 0.501 µM [falling, partial curve, poor fit]"
CC1CCCC(C)N1NC(=S)Nc1ccc(OC(F)F)cc1 (stereo not given),–,"inconclusive: 29.1 µM [falling, partial curve, poor fit]"
CCC(=O)Nc1nc2nc(-c3ccccc3)cc(=O)n2[nH]1,inconclusive: -27.4%,–
Cc1c(C(=O)NCC2COc3ccccc3O2)oc2ccc(S(=O)(=O)N3CC(C)CC(C)C3)cc12 (stereo not given),inconclusive: 4.87%,–
CC1Nc2ncnc(N3CCOCC3)c2N(Cc2ccc(Cl)cc2)C1=O (stereo not given),inactive,–
O=C(N/N=C/c1cccc(O)c1)N/N=C/c1cccc(O)c1,–,"inconclusive: 17.8 µM [falling, partial curve]"
O=C(COC(=O)c1ccc(S(=O)(=O)NCc2ccco2)cc1)NC1CCCCC1,inconclusive: -14.6%,–
Oc1ccc(Nc2ccnc3cc(Cl)ccc23)cc1,–,"inconclusive: 14.1 µM [falling, single point]"
CCOC(=O)/C(C(N)=NCCO)=C(/O)c1ccccc1,inactive,–
O=S1(=O)C=CC(Sc2nc3ccccc3[nH]2)C1 (stereo not given),inactive,–
O=C(CSc1ccccc1)N1CCN(c2ccccn2)CC1,inconclusive: -18.4%,–
COc1ccc(Nc2cc(C(=O)NC3CCCC3)c3ccccc3n2)c(OC)c1,inactive,–

# Reformatted tab-delimited: part of the list above
Compound	activity change, negative = inhibition	Potency
COC(=O)C1=C(C)N(Cc2ccco2)C(=O)C1	inactive	–
O=C(Nc1ccc(N2CCN(C(=O)c3ccco3)CC2)c(Cl)c1)c1cc2ccccc2o1	inconclusive: -17%	–
COc1cc(/C=C(\C#N)c2nc3ccccc3c(=O)[nH]2)cc(OC)c1OC	–	inconclusive: 15.8 µM [falling, partial curve]
Cc1c(C(=O)N2CC3(CC(c4cccc(NC(=O)CC(c5ccccc5)c5ccccc5)c4)=NO3)C[C@@H]2C(N)=O)cc([N+](=O)[O-])cc1[N+](=O)[O-] (stereo not given in full)	inconclusive: -1.38%	–
Cc1ccc(C(C)C)c(OCCCN2C(=O)NC(C)(C)C2=O)c1	inconclusive: -28.9%	–
CNC(=O)c1cccnc1Nc1cccc(C(F)(F)F)c1	inconclusive: 2.01%	–
COc1ccc(-c2[nH]c(-c3cc(OC)c4c(c3)OCO4)nc2-c2ccccc2)cc1	inconclusive: -11.8%	–
COc1cccc(/C=C/C(=O)Nc2ccc(C(=O)Nc3cccc(S(N)(=O)=O)c3)cc2)c1OC	inconclusive: -1.78%	–
CC(C)CC1c2[nH]c3ccccc3c2CCN1C(=O)CCC(=O)N(C)C (stereo not given)	–	inconclusive: 0.501 µM [falling, partial curve, poor fit]
CC1CCCC(C)N1NC(=S)Nc1ccc(OC(F)F)cc1 (stereo not given)	–	inconclusive: 29.1 µM [falling, partial curve, poor fit]
CCC(=O)Nc1nc2nc(-c3ccccc3)cc(=O)n2[nH]1	inconclusive: -27.4%	–
Cc1c(C(=O)NCC2COc3ccccc3O2)oc2ccc(S(=O)(=O)N3CC(C)CC(C)C3)cc12 (stereo not given)	inconclusive: 4.87%	–
CC1Nc2ncnc(N3CCOCC3)c2N(Cc2ccc(Cl)cc2)C1=O (stereo not given)	inactive	–
O=C(N/N=C/c1cccc(O)c1)N/N=C/c1cccc(O)c1	–	inconclusive: 17.8 µM [falling, partial curve]
O=C(COC(=O)c1ccc(S(=O)(=O)NCc2ccco2)cc1)NC1CCCCC1	inconclusive: -14.6%	–
Oc1ccc(Nc2ccnc3cc(Cl)ccc23)cc1	–	inconclusive: 14.1 µM [falling, single point]
COc1ccc(Nc2cc(C(=O)NC3CCCC3)c3ccccc3n2)c(OC)c1	inactive	–

# Carrying on.

Compound,"activity change, negative = inhibition",Potency
O=C(N/N=C/c1cc2c(cc1Br)OCO2)c1cc2ccccc2o1,inconclusive: 8.92%,–
CCOc1ccccc1NC(=O)CCS(=O)(=O)c1cccc2nonc12,–,"inconclusive: 25.9 µM [falling, single point]"
CCC(=O)Nc1nonc1-c1nc2ccccc2n1Cc1cccc2ccccc12,inconclusive: -11.4%,–
CN(Cc1ccccc1)C(=O)CN1C(=O)COc2ccc(S(=O)(=O)N3CCCC3)cc21,inconclusive: -6.38%,–
Cn1cccc1CNC(=O)Nc1ccc(Cl)c(Cl)c1,inactive,–
Cc1ccc(C(=O)COC(=O)[C@@H](NC(=O)c2ccco2)C(C)C)s1,inactive,–
COc1cc2ccccc2cc1C(=O)NC(=S)Nc1cccc(C(=O)O)c1,inconclusive: -12.9%,–
O=C(Nc1ccnc(=O)[nH]1)c1sc2ccccc2c1Cl,inconclusive: 2.46%,–
O=c1cc(CCl)[nH]c2nc3ccccc3n12,–,"inconclusive: 25.1 µM [falling, partial curve]"
CC(=O)[C@H]1CC[C@H]2[C@@H]3C[C@H](C)C4=CC(=O)CC[C@]4(C)[C@H]3[C@@H](O)C[C@]12C,inconclusive: 0.502%,–
O=C(CN1C(=O)NC2(CCCCCCC2)C1=O)Nc1ccc(OC(F)F)cc1,inactive,–
CCN(C(=O)COC(=O)c1cc(-c2ccc3cc(OC)ccc3c2)nc2ccccc12)C1CCS(=O)(=O)C1 (stereo not given),inconclusive: 1.05%,–
CC(=O)N1CCC(C(=O)OCc2ccccc2F)(c2ccccc2)CC1,inactive,–
Cc1ccc(NC(=O)CSc2nnnn2C2CC2)cc1S(=O)(=O)N1CCOCC1,inactive,–
COc1cc(S(=O)(=O)NCc2ccccc2)ccc1-n1cnnn1,inactive,–
O=c1c2cc(N3CCOCC3)ccc2[nH]c(=S)n1CCN1CCCC1,–,"inconclusive: 13 µM [falling, partial curve]"
OC(c1ccccn1)C1CCN(Cc2nc(C(c3ccccc3)c3ccccc3)no2)CC1 (stereo not given),–,"inconclusive: 1.58 µM [falling, full curve, poor fit]"
Cc1cccc(N(Cc2ccccc2)C(=O)c2cc(S(=O)(=O)N3CCOCC3)ccc2Cl)c1,inconclusive: 0.674%,–
O=C1c2cccnc2C(Nc2ccc(Br)cc2)N1Cc1cccs1 (stereo not given),inconclusive: -7.9%,–
COC(=O)c1sccc1NC(=O)Nc1ccc(F)cc1,–,"inconclusive: 11.2 µM [falling, partial curve]"
CC(C)OCCCN1CN(S(=O)(=O)c2cccc(Cl)c2)c2nc3ccccc3nc21,inconclusive: 15.5%,–
COc1cc(NC2CCCCC2O)c2nc(-c3ccc(Cl)cc3)ccc2c1 (stereo not given),inconclusive: 15%,–
Cc1ccc(C(=O)NCc2ccc3c(c2)OCO3)c(C)c1,inconclusive: 5.44%,–
COc1ccc(/C=C/C(=O)C2(O)CCCCC2)cc1,inconclusive: -2.96%,–
COc1ccccc1C(=O)NNC(=O)c1ccccc1Br,–,"inconclusive: 17.8 µM [falling, partial curve]"
Cn1nc(C(=O)Nc2cccc(S(=O)(=O)N3CCCCC3)c2)c2ccccc2c1=O,–,"inconclusive: 9.2 µM [falling, partial curve]"
